Measured values reported in publication PMC7431843.
No constants are given. Whether binding was seen depends on the method and setting. Binding seen in cells or lysates may run through a third protein. A result given as binding can be weak or reduced; the word gives no strength.

Columns and labels:
Assay in all cases: co-IP; reciprocal co-immunoprecipitation after coexpression in HEK293T cells (24 h); TNTE lysis buffer (Tris-HCl pH 7.5, 120 mM NaCl, 1% Triton X-100, 1 mM EDTA); anti-FLAG M2 affinity gel, or rabbit polyclonal mCherry, RFP or GFP antibodies with Protein G Sepharose; beads washed 6x with lysis buffer supplemented with 500 mM NaCl; immunoblot
[1] = molecular target: Plk4 kinase domain (isolated, deletion construct) (human)
[2] = molecular target: Plk4 polobox domains PB-1/PB-2 (deletion construct) (human)
[3] = molecular target: FLAG-Plk4 K41M (kinase-dead) (human)

Measured: binding

B1: RFP-FAM46C (protein, UniProt Q5VWP2 1-391)
chain: MAEESSCTRDCMSFSVLNWDQVSRLHEVLTEVVPIHGRGNFPTLEITLKDIVQTVRSRLEEAGIKVHDVRLNGSAAGHVLVKDNGLGCKDLDLIFHVALPTEAEFQLVRDVVLCSLLNFLPEGVNKLKISPVTLKEAYVQKLVKVCTDTDRWSLISLSNKNGKNVELKFVDSIRRQFEFSVDSFQIILDSLLFFYDCSNNPISEHFHPTVIGESMYGDFEEAFDHLQNRLIATKNPEEIRGGGLLKYSNLLVRDFRPTDQEEIKTLERYMCSRFFIDFPDILEQQRKLETYLQNHFAEEERSKYDYLMILRRVVNESTVCLMGHERRQTLNLISLLALRVLAEQNIIPSATNVTCYYQPAPYVSDGNFSNYYVAHPPVTYSQPYPTWLPCN
binds: all assays above
